Results from paper doi:10.1101/2020.12.16.423021.
These are yes or no findings as the source states them, for the method shown. Some entries that bind do so weakly or less than the wild type.

By UniProt entry, the sequences of proteins in these tests, tags left out. Residues count along the entry.
UniProt Q8CIZ8, residues 764-2813: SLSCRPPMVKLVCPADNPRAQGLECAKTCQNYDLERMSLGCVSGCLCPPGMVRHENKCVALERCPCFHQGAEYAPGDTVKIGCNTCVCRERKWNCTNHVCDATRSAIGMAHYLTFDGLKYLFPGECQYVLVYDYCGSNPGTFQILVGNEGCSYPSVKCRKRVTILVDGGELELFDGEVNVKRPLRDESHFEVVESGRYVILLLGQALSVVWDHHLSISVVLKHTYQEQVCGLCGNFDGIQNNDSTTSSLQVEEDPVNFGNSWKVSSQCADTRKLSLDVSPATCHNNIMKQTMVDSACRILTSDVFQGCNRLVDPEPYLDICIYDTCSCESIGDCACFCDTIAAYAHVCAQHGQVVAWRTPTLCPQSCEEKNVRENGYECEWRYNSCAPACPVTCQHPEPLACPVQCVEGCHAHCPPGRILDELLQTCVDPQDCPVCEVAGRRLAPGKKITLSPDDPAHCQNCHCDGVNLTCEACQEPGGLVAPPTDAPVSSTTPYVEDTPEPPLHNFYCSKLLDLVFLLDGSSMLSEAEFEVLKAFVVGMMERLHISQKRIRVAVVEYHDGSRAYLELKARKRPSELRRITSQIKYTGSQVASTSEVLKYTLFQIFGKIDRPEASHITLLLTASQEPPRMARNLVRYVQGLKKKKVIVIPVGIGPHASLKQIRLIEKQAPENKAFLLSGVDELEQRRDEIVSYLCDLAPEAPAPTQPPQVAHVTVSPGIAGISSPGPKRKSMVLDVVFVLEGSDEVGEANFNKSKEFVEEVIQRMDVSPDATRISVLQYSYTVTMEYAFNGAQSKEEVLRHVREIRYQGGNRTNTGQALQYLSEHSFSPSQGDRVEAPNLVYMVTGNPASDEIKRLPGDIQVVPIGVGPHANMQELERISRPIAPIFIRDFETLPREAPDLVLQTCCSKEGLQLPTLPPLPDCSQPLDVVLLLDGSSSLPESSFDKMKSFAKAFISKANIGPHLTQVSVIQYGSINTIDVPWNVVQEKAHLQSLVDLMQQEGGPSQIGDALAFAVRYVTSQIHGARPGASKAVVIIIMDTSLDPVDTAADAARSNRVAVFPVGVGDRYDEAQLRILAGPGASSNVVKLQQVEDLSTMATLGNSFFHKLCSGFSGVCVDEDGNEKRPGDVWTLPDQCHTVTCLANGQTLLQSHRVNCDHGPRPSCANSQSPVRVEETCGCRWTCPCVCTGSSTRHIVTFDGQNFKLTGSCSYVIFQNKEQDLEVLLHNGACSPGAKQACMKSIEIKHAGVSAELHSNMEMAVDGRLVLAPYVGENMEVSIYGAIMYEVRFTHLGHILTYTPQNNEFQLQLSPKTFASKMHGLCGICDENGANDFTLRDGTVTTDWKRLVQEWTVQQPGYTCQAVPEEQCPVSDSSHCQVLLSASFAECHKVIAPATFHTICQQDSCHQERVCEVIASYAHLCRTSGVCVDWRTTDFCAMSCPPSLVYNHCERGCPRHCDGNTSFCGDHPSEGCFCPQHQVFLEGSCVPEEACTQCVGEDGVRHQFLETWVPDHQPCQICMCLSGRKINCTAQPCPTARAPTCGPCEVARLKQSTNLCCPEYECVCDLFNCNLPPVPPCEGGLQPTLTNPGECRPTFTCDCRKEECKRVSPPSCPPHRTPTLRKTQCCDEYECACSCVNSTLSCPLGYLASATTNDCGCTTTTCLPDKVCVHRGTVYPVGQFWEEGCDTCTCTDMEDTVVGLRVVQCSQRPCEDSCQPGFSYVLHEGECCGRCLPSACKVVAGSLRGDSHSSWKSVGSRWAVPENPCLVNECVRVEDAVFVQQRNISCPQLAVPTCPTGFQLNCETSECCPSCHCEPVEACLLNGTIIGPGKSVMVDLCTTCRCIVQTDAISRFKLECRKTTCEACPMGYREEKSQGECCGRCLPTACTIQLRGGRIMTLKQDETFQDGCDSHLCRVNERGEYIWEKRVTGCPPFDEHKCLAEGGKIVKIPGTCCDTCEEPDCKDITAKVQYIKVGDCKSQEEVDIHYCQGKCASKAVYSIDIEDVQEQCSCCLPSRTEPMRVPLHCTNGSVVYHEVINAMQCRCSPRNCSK

Assays:
[1] = molecular target: murine von Willebrand factor (VWF) (mouse), Q8CIZ8; test: static platelet adhesion and spreading on coated coverslips; details: remark: other sources report otherwise
[2] = molecular target: murine von Willebrand factor (VWF) (mouse), Q8CIZ8; test: platelet adhesion under flow; details: remark: other sources report otherwise
[3] = molecular target: murine von Willebrand factor (VWF) (mouse) (UniProt Q8CIZ8); test: static platelet adhesion and spreading on coated coverslips

B1: murine GPIbα (glycoprotein Ibα), wild type, on platelets of GpIbα^+/+ mice, O35930 17-734 (receptor)
chain: QHTCSISKVTSLLEVNCENKKLTALPADLPADTGILHLGENQLGTFSTASLVHFTHLTYLYLDRCELTSLQTNGKLIKLENLDLSHNNLKSLPSLGWALPALTTLDVSFNKLGSLSPGVLDGLSQLQELYLQNNDLKSLPPGLLLPTTKLKKLNLANNKLRELPSGLLDGLEDLDTLYLQRNWLRTIPKGFFGTLLLPFVFLHANSWYCDCEILYFRHWLQENANNVYLWKQGVDVKDTTPNVASVRCANLDNAPVYSYPGKGCPTSSGDTDYDDYDDIPDVPATRTEVKFSTNTKVHTTHWSLLAAAPSTSQDSQMISLPPTHKPTKKQSTFIHTQSPGFTTLPETMESNPTFYSLKLNTVLIPSPTTLEPTSTQATPEPNIQPMLTTSTLTTPEHSTTPVPTTTILTTPEHSTIPVPTTAILTTPKPSTIPVPTTATLTTLEPSTTPVPTTATLTTPEPSTTLVPTTATLTTPEHSTTPVPTTATLTTPEHSTTPVPTTATLTTPEPSTTLTNLVSTISPVLTTTLTTPESTPIETILEQFFTTELTLLPTLESTTTIIPEQNSFLNLPEVALVSSDTSESSPFLNSDFCCFLPLGFYVLGLLWLLFASVVLILLLTWTWHVTPHSLDMEQSAALATSTHTTSLEVQRARQVTMPRAWLLFLQGSLPTFRSSLFLWVRPNGRVGPLVAGRRPSALSQGRGQDLLGTVGIRYSGHSL
With B1 the binding [1] was “binds” and the binding [2] was “binds”.

B2: murine GPIbα (glycoprotein Ibα), wild type, on platelets of GpIbα^+/+ mice (receptor, UniProt O35930 17-734)
chain: QHTCSISKVTSLLEVNCENKKLTALPADLPADTGILHLGENQLGTFSTASLVHFTHLTYLYLDRCELTSLQTNGKLIKLENLDLSHNNLKSLPSLGWALPALTTLDVSFNKLGSLSPGVLDGLSQLQELYLQNNDLKSLPPGLLLPTTKLKKLNLANNKLRELPSGLLDGLEDLDTLYLQRNWLRTIPKGFFGTLLLPFVFLHANSWYCDCEILYFRHWLQENANNVYLWKQGVDVKDTTPNVASVRCANLDNAPVYSYPGKGCPTSSGDTDYDDYDDIPDVPATRTEVKFSTNTKVHTTHWSLLAAAPSTSQDSQMISLPPTHKPTKKQSTFIHTQSPGFTTLPETMESNPTFYSLKLNTVLIPSPTTLEPTSTQATPEPNIQPMLTTSTLTTPEHSTTPVPTTTILTTPEHSTIPVPTTAILTTPKPSTIPVPTTATLTTLEPSTTPVPTTATLTTPEPSTTLVPTTATLTTPEHSTTPVPTTATLTTPEHSTTPVPTTATLTTPEPSTTLTNLVSTISPVLTTTLTTPESTPIETILEQFFTTELTLLPTLESTTTIIPEQNSFLNLPEVALVSSDTSESSPFLNSDFCCFLPLGFYVLGLLWLLFASVVLILLLTWTWHVTPHSLDMEQSAALATSTHTTSLEVQRARQVTMPRAWLLFLQGSLPTFRSSLFLWVRPNGRVGPLVAGRRPSALSQGRGQDLLGTVGIRYSGHSL
B2 was tested, and the binding [3] was “binds weakly”.
